{
  "source": "PubChem BioAssay AID493014",
  "about": "(National Center for Advancing Translational Sciences (NCATS), 2011)",
  "note": "The whole screen tested about 340,000 compounds, of which about 170 (0.05%) were called active. Inconclusive results, whose numbers are uncertain, are shown with a selection of clear calls. Calls come from the whole dose curve; as a rule, active = well fitted inhibition curve with a large enough effect in the signal ratio, with a control signal flat (not every such curve was filed as active); inconclusive = small, poorly fitted or top-dose-only effect, or effect the other way, or a change in a side signal; inactive = flat fitted curve, though single readings scatter; the % refers to the signal ratio. A potency beside an inconclusive call is a rough fit, not a confirmed value. Potency is the fitted concentration of half-maximal effect.",
  "data": [
    {"assay": "qHTS Assay to Find Inhibitors of Chronic Active B-Cell Receptor Signaling;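 for activity change, negative = inhibition: plate controls were basal doxycycline-induced cells for no effect and cells given 10 µM MG132 for full effect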", "details": "ABC-DLBCL IkBa-CBG/CBR reporter, luminescence ratio (green luciferase fused to IkBa over red control in TMD8 lymphoma cells), 4 h; activity change, negative = inhibition: at 46.1 µM (top of the series) unless noted", "summary_of_the_method": "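Doxycycline induced both beetle luciferases in TMD8 lymphoma cells; IKK-driven degradation limits the IkappaBalpha-fused green signal, while red luminescence normalises for cell number and nonspecific effects. Compounds tested up to 46 uM, 4 hrs.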", "values": [
      {"smiles": "CC1(C)c2ccccc2N2CC(=O)N(CC(N)=O)C21C", "note": "(stereo not drawn)", "Potency": "inconclusive: 7.94 µM [rising, partial curve, poor fit]"},
      {"smiles": "O=C(c1sc2ccccc2c1Cl)N(Cc1ccco1)C1CCS(=O)(=O)C1", "note": "(stereo not drawn)", "activity change, negative = inhibition": "inactive: 0.278%"},
      {"smiles": "Nc1cc(C(=O)O)c(N)c2c1C(=O)c1ccccc1C2=O", "activity change, negative = inhibition": "inconclusive: 19.3%"},
      {"smiles": "CC(OC(=O)Cc1coc2ccc3ccccc3c12)C(=O)NC(N)=O", "note": "(stereo not drawn)", "activity change, negative = inhibition": "inconclusive: -1.75%"},
      {"smiles": "c1ccc(OCc2nn3c(-c4n[nH]c5c4CCC5)nnc3s2)cc1", "activity change, negative = inhibition": "inconclusive: 4.02%"},
      {"smiles": "CCOC(=O)N/N=C\\C=C\\c1ccco1", "activity change, negative = inhibition": "inconclusive: -8.57%"},
      {"smiles": "O=C1/C(=C/c2ccccc2)CCC1C1CCCC1", "note": "(stereo not drawn)", "activity change, negative = inhibition": "inconclusive: 6.4%"},
      {"smiles": "CCN1C(=O)[C@H]2[C@@H](c3ccc(C)cc3)N3C(=O)N(c4cccc(F)c4)C(=O)[C@@]3(Cc3ccc(Cl)cc3)[C@H]2C1=O", "Potency": "inconclusive: 29.1 µM [falling, single point]"},
      {"smiles": "O=C(COC(=O)C1CCN(c2ccc(C(F)(F)F)cn2)CC1)Nc1ncc(Cl)cc1Cl", "activity change, negative = inhibition": "inconclusive: -0.0266%"},
      {"smiles": "CC(=O)c1ccc(NC(=O)/C=C/c2ccc(C)cc2)cc1", "activity change, negative = inhibition": "inactive: 0.671%"},
      {"smiles": "Cc1ncc([N+](=O)[O-])n1CCOC(=O)c1ccccc1", "activity change, negative = inhibition": "inactive: -8.68%"},
      {"smiles": "O=C(NCc1nnc(SCc2ccccc2)n1-c1ccc(F)cc1)C12CC3CC(CC(C3)C1)C2", "activity change, negative = inhibition": "inconclusive: -10.2%"},
      {"smiles": "CC(C)NC(=O)c1ccc2c3n(nc2c1)-c1ccc(Cl)cc1CO3", "activity change, negative = inhibition": "inactive: 4.51%"},
      {"smiles": "CCCc1cc(C(=O)NC(C)C2CCCO2)cs1", "note": "(stereo not drawn)", "activity change, negative = inhibition": "inconclusive: 1.94%"},
      {"smiles": "O=C(CCc1nc2ccccc2c(=O)[nH]1)N1CCCc2ccccc21", "activity change, negative = inhibition": "inconclusive: 0.0066%"},
      {"smiles": "CC(=O)N1c2c(cc(Br)cc2S(=O)(=O)NCC2COc3ccccc3O2)CC1C", "note": "(stereo not drawn)", "activity change, negative = inhibition": "inactive: 0.313%"},
      {"smiles": "Cc1oc2c(c1C(=O)Nc1ccc(C(=O)O)cc1)CCCC2", "activity change, negative = inhibition": "inconclusive: -1.07%"},
      {"smiles": "CCOc1ccc(Br)cc1C(=O)N/N=C/c1ccc([N+](=O)[O-])cc1", "Potency": "inconclusive: 35.5 µM [rising, partial curve]"},
      {"smiles": "Cc1ccccc1NC(=O)CC1SC(=O)N(c2ccccc2)C1=O", "note": "(stereo not drawn)", "Potency": "inconclusive: 29.1 µM [falling, single point]"},
      {"smiles": "Cc1cccc(OCc2nnc(SCC(=O)Nc3cc(C)on3)n2C)c1", "activity change, negative = inhibition": "inconclusive: -0.0994%"},
      {"smiles": "CCN(CC)c1ccc(S(=O)(=O)Nc2cc(Cl)ccc2Cl)cc1NC(=S)NC(=O)C1CCCC1", "activity change, negative = inhibition": "inactive: 9.56%"},
      {"smiles": "CCCCC(=O)Nc1ccccc1C(=O)OCC(=O)c1ccc2c(c1)OCCO2", "activity change, negative = inhibition": "inconclusive: -17.6%"},
      {"smiles": "COc1ccc(CCNC(=S)Nc2ccc(OC)cc2)cc1", "activity change, negative = inhibition": "inactive: -0.872%"}
    ]}
  ]
}
